Laboratory results published in US10273231B2, “Azoline compounds substituted by a condensed ring system” (BASF SE, priority 2014, dated 2019).
Some of these results come from one statement about several compounds together.

Tests used:
Format in all cases: in vivo
[1] = system: Rice Green Leafhopper (Nephotettix virescens); test: B.8 Rice green leafhopper test on sprayed rice seedlings; conditions: at 300 ppm; adults; recorded after 72 hours
[2] = system: Orchid Thrips (Dichromothrips Corbetti); test: B.7 Orchid thrips floral-immersion test; conditions: at 300 ppm; adult thrips; recorded 72 hours after treatment
[3] = system: Mediterranean Fruitfly (Ceratitis capitata); test: B.6 Mediterranean fruitfly test, insect diet with eggs in microtiter plates; conditions: at 2500 ppm; egg and larval mortality after 5 days
[4] = system: Neotropical Brown Stink Bug (Euschistus heros); test: B.12 Neotropical brown stink bug test on soybean pods in plastic cups; conditions: at 100 ppm; adult stage; recorded after 5 days
Description: B.12 Neotropical Brown Stink Bug (Euschistus heros)
The active compound was dissolved at the desired concentration in a mixture of 1:1 (vol:vol) distilled water:acetone. Surfactant (Kinetic HV) was added at a rate of 0.01% (vol/vol).The test solution was prepared at the day of use.
Soybean pods were placed in microwavable plastic cups and inoculated with ten adult stage E. heros. Using a hand atomizer, approximately 1 ml solution is sprayed into each cup, insects and food present. A water source was provided (cotton wick with water). Each treatment was replicated 2-fold. Assay arenas were kept at about 25° C. Percent mortality was recorded after 5 days.

[5] = system: Green Soldier Stink Bug (Nezara viridula); test: B.11 Green soldier stink bug test on soybean pods in Petri dishes; conditions: at 300 ppm; late 3rd instar; recorded after 5 days
[6] = system: Red Spider Mite (Tetranychus kanzawai); test: B.9 Red spider mite test on sprayed cowpea beans; conditions: at 300 ppm; assessed 72 hours after treatment
Description: B.9 Red Spider Mite (Tetranychus kanzawai)
The active compound was dissolved at the desired concentration in a mixture of 1:1 (vol:vol) distilled water:acetone. Add surfactant (Kinetic HV) was added at a rate of 0.01% (vol/vol).The test solution was prepared at the day of use.
Potted cowpea beans of 4-5 days of age were cleaned with tap water and sprayed with 1-2 ml of the test solution using air driven hand atomizer. The treated plants were allowed to air dry and afterwards inoculated with 30 or more mites by clipping a cassava leaf section from rearing population. Treated plants were placed inside a holding room at about 25-27° C. and about 50-60% relative humidity. Percent mortality was assessed 72 hours after treatment.

[7] = system: Green Peach Aphid (Myzus persicae); test: B.2 Green peach aphid systemic test, artificial diet under membrane in microtiter plates; conditions: at 2500 ppm; adult aphids; assessed after 3 days
[8] = system: Boll Weevil (Anthonomus grandis); test: B.5 Boll weevil test, insect diet with eggs in microtiter plates; conditions: at 2500 ppm; egg and larval mortality after 5 days
Outline: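 Compounds in 75% water/25% DMSO sprayed at several concentrations (5 μl, two replicates) onto insect diet in 96-well microtiter plates holding 5-10 A. grandis eggs. After 5 days at about 25±1° C and 75±5% relative humidity, egg and larval mortality scored visually.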

[9] = system: Diamond Back Moth (Plutella xylostella); test: B.1 Diamond back moth leaf-dip test on cabbage leaves; conditions: at 300 ppm; 3rd instar larvae; recorded 72 hours after treatment

Measured: mortality in comparison with untreated controls

O=C(NCc1ccccn1)c1ccc(C2=NOC(c3cc(Cl)c(F)c(Cl)c3)(C(F)(F)F)C2)c2c1SCC2 (stereo not drawn) [Compound I-9]
at least 75%: all assays above

O=C(NCc1ccc(C2=NOC(c3cc(Cl)c(F)c(Cl)c3)(C(F)(F)F)C2)c2c1OCC2)C1CC1 (stereo not drawn) [Compound I-15]
at least 75%: all assays above

CC(=O)NCc1ccc(C2=NOC(c3cc(Cl)c(F)c(Cl)c3)(C(F)(F)F)C2)c2c1OCC2 (stereo not drawn) [Compound I-17]
at least 75%: all assays above

CCC(=O)NCc1ccc(C2=NOC(c3cc(Cl)c(F)c(Cl)c3)(C(F)(F)F)C2)c2c1OCC2 (stereo not drawn) [Compound I-18]
at least 75%: all assays above

O=C(NCc1ncccn1)c1ccc(C2=NOC(c3cc(Cl)c(F)c(Cl)c3)(C(F)(F)F)C2)c2c1[S+]([O-])CC2 (stereo not drawn) [Compound I-20]
at least 75%: all assays above
